Laboratory results: PubChem BioAssay AID504808 (Drosophila RNAi Screening Center, 2011)

Screen: 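Genes whose loss lifts activity of an E2F-responsive reporter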 (primary screen)
System: Drosophila S2 cells
Reagents: long dsRNA against Drosophila genes
Read-out: 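Dual luciferase plate measurements; E2F-specific signal taken as firefly over Renilla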
Reading the numbers: E2F firefly: higher = more E2F reporter activity; Renilla normaliser: higher = more normaliser reporter signal
Active means: 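Called active if the normalised E2F reporter went up by over 50%; the cutoff is arbitrary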
The deposit covers about 21,000 reagents; this is an unselected part of those with a known target gene and a result. Of all reagents, 18 (0.084%) got an active call. 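Raw counts without plate normalisation, one of two replicates; the ratio scores behind the calls were not deposited.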 A number with no mark means an inactive call. Not given: the amount of reagent, the time to read-out.

CG30015 [DRSC05241] scored E2F firefly, rep 1 = 1.28e5; Renilla normaliser, rep 1 = 5067.
Depletion of CG30015 [DRSC07027] gave: E2F firefly, rep 1 = 2355; Renilla normaliser, rep 1 = 179.
CG30015 [DRSC07028] showed E2F firefly, rep 1 = 1.46e5; Renilla normaliser, rep 1 = 4494.
CG14915 [DRSC02399] scored E2F firefly, rep 1 = 1.27e5; Renilla normaliser, rep 1 = 5860.
Silencing of CG9399 [DRSC16488] resulted in: E2F firefly, rep 1 = 1.48e5; Renilla normaliser, rep 1 = 6808.
Depletion of Drsl6 [DRSC08161] resulted in: E2F firefly, rep 1 = 1.07e5; Renilla normaliser, rep 1 = 3867.
With knock-down of beat-VI [DRSC14474], the screen gave E2F firefly, rep 1 = 1.18e5; Renilla normaliser, rep 1 = 6151.
For beat-VI [DRSC14727], the entry reads E2F firefly, rep 1 = 1.19e5; Renilla normaliser, rep 1 = 6014.

2 entries from above in another layout.
target gene,amplicon,"E2F firefly, rep 1","Renilla normaliser, rep 1"
CG9399,DRSC16488,1.48e5,6808
Drsl6,DRSC08161,1.07e5,3867

The listing continues.
Depletion of CG8777 [DRSC07263] resulted in: E2F firefly, rep 1 = 2877; Renilla normaliser, rep 1 = 198.
After knock-down of vari [DRSC03202], the record shows E2F firefly, rep 1 = 1.09e5; Renilla normaliser, rep 1 = 4482.
Against Or9a [DRSC18692], the entry reads E2F firefly, rep 1 = 1.28e5; Renilla normaliser, rep 1 = 5927.
Knock-down of CG7458 [DRSC11829] came out at: E2F firefly, rep 1 = 1.47e5; Renilla normaliser, rep 1 = 7696.
Depletion of CG9500 [DRSC03237] gave: E2F firefly, rep 1 = 1.73e5; Renilla normaliser, rep 1 = 5411.
After knock-down of RhoGAP18B [DRSC19763], the screen gave E2F firefly, rep 1 = 1.19e5; Renilla normaliser, rep 1 = 6498.
After knock-down of RhoGAP18B [DRSC20047] the results were E2F firefly, rep 1 = 1.17e5; Renilla normaliser, rep 1 = 6480.
RhoGAP18B [DRSC20048] showed E2F firefly, rep 1 = 1.38e5; Renilla normaliser, rep 1 = 6126.
After knock-down of RhoGAP18B [DRSC20049], the record shows E2F firefly, rep 1 = 1.11e5; Renilla normaliser, rep 1 = 6071.
Silencing of LManVI [DRSC03224] came out at: E2F firefly, rep 1 = 1.53e5; Renilla normaliser, rep 1 = 5323.
Pde8 [DRSC04503] showed E2F firefly, rep 1 = 80721; Renilla normaliser, rep 1 = 3491.
